Assay results taken from paper PMC5155689, “Pro-invasive Effect of Proto-oncogene PBF Is Modulated by an Interaction with Cortactin” (The Journal of Clinical Endocrinology and Metabolism, 2016).
These are yes or no findings as the source states them, for the method shown. Binding seen in cells or lysates may run through a third protein. These calls come from enrichment with a bait or labelling near it, and not all partners need be listed. Sequences can lack the tags named with a protein.

Chains of the proteins cited; added tags and fusions are not shown.
UniProt Q14247: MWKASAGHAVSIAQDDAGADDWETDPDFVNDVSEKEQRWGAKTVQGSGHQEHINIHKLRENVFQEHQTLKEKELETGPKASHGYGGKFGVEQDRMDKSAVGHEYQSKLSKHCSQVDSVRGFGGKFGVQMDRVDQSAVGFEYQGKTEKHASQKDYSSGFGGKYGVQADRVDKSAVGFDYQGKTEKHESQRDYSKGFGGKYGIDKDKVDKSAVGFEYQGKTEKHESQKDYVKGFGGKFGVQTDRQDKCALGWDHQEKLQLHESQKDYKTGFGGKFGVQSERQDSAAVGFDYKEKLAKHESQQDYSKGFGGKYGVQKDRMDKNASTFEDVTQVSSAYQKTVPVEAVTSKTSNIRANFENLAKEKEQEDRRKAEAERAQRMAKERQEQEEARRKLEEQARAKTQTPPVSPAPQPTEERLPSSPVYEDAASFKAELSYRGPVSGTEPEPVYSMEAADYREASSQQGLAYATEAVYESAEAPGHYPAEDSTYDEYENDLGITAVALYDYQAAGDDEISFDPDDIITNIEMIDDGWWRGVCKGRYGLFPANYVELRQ

Target: T1, PTTG1-binding factor (PBF/PTTG1IP) with a hemagglutinin (HA) tag, wild type (UniProt P53801)
T1 sequence: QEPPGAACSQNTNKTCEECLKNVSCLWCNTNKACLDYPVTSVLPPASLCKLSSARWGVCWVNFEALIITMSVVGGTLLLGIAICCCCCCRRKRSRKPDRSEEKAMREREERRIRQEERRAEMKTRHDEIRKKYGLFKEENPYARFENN
Assay: affinity purification with mass spectrometry; PBF-interacting proteins isolated by co-immunoprecipitation with anti-mHA antibody from TPC-1 and K1 cells, SDS-PAGE, trypsin, HPLC and tandem mass spectrometry; n = 4 runs

endogenous cortactin (CTTN) (from UniProt Q14247 1-550)
binding: binds
